Experimental data taken from PubChem BioAssay AID192 (DTP/NCI, 2004).
The list shows only some results of the screen, not a fair sample: it gathers tests that were run many times, whatever their T/C, doses with no T/C, and many T/C values between a quarter and a half above the control. Other doses and runs of a compound stand elsewhere. T/C: endpoint of the treated group in % of that of the vehicle group. Some entries give survivors of the animals treated and no T/C: the source files T/C as zero there, which appears to mark a toxic dose or a test without result, not a measured value. Some survivor counts are full or nearly so, which does not show that the dose was tolerated: survival well below the control is almost never listed, so the zero probably covers shortened survival too. Survivors were counted at the toxicity check, usually on the fifth day, unless a day is given; later deaths do not show. Schedules are NCI's codes, read here as Q, the interval in days (D) or hours (H), X, the number of doses. Some doses were run more than once; their values stand side by side, smallest first. For survival time, this PubChem deposit counts one and a half times the control or more as active, and values a quarter to a half above the control carry no call in these data; other NCI protocols may use other cut-offs. Some T/C values are followed by the survivors on the day toxicity was checked, most often the fifth; without a count, all were alive then.

System: BDF1 mice, B16 melanoma ip, median survival T/C
Test: NCI In Vivo Anticancer Drug Screen. Data for tumor model B16 Melanoma (intraperitoneal) in B6D2F1 (BDF1) mice
Details: T/C endpoint: median survival time, higher T/C = longer survival
Procedure, shortened: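 Values are ratios of treated (T) to vehicle-control (C) measurements of survival or tumor size in tumor-bearing mice.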

[1] = dose: 100.0 mg/kg/injection, schedule: Q01DX009 (ip), vehicle: saline
[2] = dose: 400.0 mg/kg/injection, schedule: Q01DX009 (ip), vehicle: saline
[3] = dose: 50.0 mg/kg/injection, schedule: Q01DX009 (ip), vehicle: saline
[4] = dose: 100.0 mg/kg/injection, schedule: Q01DX009 (ip), vehicle: saline with Tween-80
[5] = dose: 200.0 mg/kg/injection, schedule: Q01DX009 (ip), vehicle: saline with Tween-80
[6] = dose: 400.0 mg/kg/injection, schedule: Q01DX009 (ip), vehicle: saline with Tween-80
[7] = dose: 100.0 mg/kg/injection, schedule: Q01DX009 (ip), vehicle: Klucel (hydroxypropylcellulose) (HPC)
[8] = dose: 400.0 mg/kg/injection, schedule: Q01DX009 (ip), vehicle: Klucel (hydroxypropylcellulose) (HPC)
[9] = dose: 200.0 mg/kg/injection, schedule: Q01DX009 (ip), vehicle: Klucel (hydroxypropylcellulose) (HPC)
[10] = dose: 25.0 mg/kg/injection, schedule: Q01DX009 (ip), vehicle: saline
[11] = dose: 50.0 mg/kg/injection, schedule: Q01DX009 (ip), vehicle: Klucel (hydroxypropylcellulose) (HPC)

For `COC(=O)C(CCCCN=Cc1ccccc1O)N=Cc1ccccc1O.[Ni]` (stereo not drawn), the survivor count (dose: 50.0 mg/kg/injection, schedule: Q04DX003 (ip), vehicle: saline with Tween-80) was 10 of 10.
`O=C1CC(=O)C(Br)=C1Br` was tested, and the survivor count (dose: 0.75 mg/kg/injection, schedule: Q04DX003 (ip), vehicle: saline with Tween-80) was 10 of 10 and the survivor count (dose: 1.5 mg/kg/injection, schedule: Q04DX003 (ip), vehicle: saline with Tween-80) was 9 of 10.
For `CC(Cc1ccccc1)NCCn1cnc2c1c(=O)n(C)c(=O)n2C` (stereo not drawn), the survivor count [1] was 2 of 10, the survivor count (dose: 200.0 mg/kg/injection, schedule: Q01DX009 (ip), vehicle: saline) was 0 of 10 and the survivor count [2] was 0 of 10.
For `CNCCCN(C)CCCNC`, the survivor count [3] was 10 of 10 and the survivor count [1] was 8 of 10.
In the case of `OCCOCCN1CCN(CCCN2c3ccccc3Sc3ccc(C(F)(F)F)cc32)CC1`, the survivor count (dose: 12.8 mg/kg/injection, schedule: Q01DX009 (ip), vehicle: saline) is reported as 10 of 10 and the survivor count (dose: 1.5 micrograms/kg/injection, schedule: Q01DX009 (ip), vehicle: saline) is reported as 9 of 10.
In the case of `CC(OCc1ccccc1)C(NC(=O)OC(C)(C)C)C(=O)O` (stereo not drawn), the survivor count [4] is reported as 10 of 10, the survivor count [5] is reported as 10 of 10 and the survivor count [6] is reported as 9 of 10.
For `O=C(COc1ccc(Cl)cc1Cl)Nc1ccc(F)cc1`, the survivor count [5] was 10 of 10.
`CCc1ccccc1NC(=O)Nc1ccc(OC)cc1` was tested, and the survivor count [7] was 10 of 10.
With `CC1OC(OCc2ccc3c(c2)C(=O)c2ccccc2C3=O)CC(N)C1O` (stereo not drawn) the T/C (dose: 25.0 mg/kg/injection, schedule: Q01DX009 (ip), vehicle: water) was 130 % of control.
In the case of `O=C(Nc1ccccc1F)C(c1ccccc1)c1ccccc1`, the survivor count [7] is reported as 10 of 10 and the survivor count [8] is reported as 10 of 10.
`CNC(=O)Oc1cccn(C(=O)NC)c1=O` was tested, and the survivor count (dose: 12.5 mg/kg/injection, schedule: Q01DX009 (ip), vehicle: saline) was 10 of 10, the survivor count [3] was 10 of 10 and the survivor count (dose: 75.0 mg/kg/injection, schedule: Q01DX009 (ip), vehicle: saline) was 10 of 10. The survivor count [1] was 10 of 10 and the survivor count (dose: 150.0 mg/kg/injection, schedule: Q01DX009 (ip), vehicle: saline) was 7 of 10 and 9 of 10.
With `CCC(=O)N(C)[C@@H](C)C(=O)O[C@H]1CC(=O)N(C)c2cc(cc(OC)c2Cl)C/C(C)=C/C=C[C@@H](OC)[C@@]2(O)C[C@H](OC(=O)N2)[C@@H](C)[C@@H]2O[C@@]12C` the T/C (dose: 1.3 micrograms/kg/injection, schedule: Q01DX009 (ip), vehicle: saline + alcohol) was 138 % of control, the T/C (dose: 2.5 micrograms/kg/injection, schedule: Q01DX009 (ip), vehicle: saline + alcohol) was 141 % of control and the survivor count (dose: 30.0 micrograms/kg/injection, schedule: Q01DX009 (ip), vehicle: saline + alcohol) was 9 of 10. The survivor count (dose: 60.0 micrograms/kg/injection, schedule: Q01DX009 (ip), vehicle: saline + alcohol) was 2 of 10 and 10 of 10.
In the case of `CC(=O)OCC(CCC(C)C)=C(C)C`, the survivor count (dose: 200.0 mg/kg/injection, schedule: Q04DX003 (ip), vehicle: saline with Tween-80) is reported as 10 of 10, the survivor count [6] is reported as 10 of 10 and the survivor count (dose: 400.0 mg/kg/injection, schedule: Q04DX003 (ip), vehicle: saline with Tween-80) is reported as 10 of 10.
In the case of `CC(C)(C)OC(=O)NC(COCc1ccccc1)C(=O)O` (stereo not drawn), the survivor count [5] is reported as 10 of 10 and the survivor count [6] is reported as 10 of 10.
`CCCCOP(=O)(CCl)OCCCC` was tested, and the survivor count [9] was 8 of 10.
With `O=C(O)C1CC[N-]CC1.O=C(O)C1CC[N-]CC1.O=C(O)C1CC[N-]CC1.O=C(O)C1CC[N-]CC1.[Cl][Rh][Cl]` the survivor count [4] was 10 of 10, the survivor count [5] was 10 of 10 and the survivor count [6] was 9 of 10.
`CC1(C)COCN1COC1CCCCC1` was tested, and the T/C [4] was 128 and 142 % of control, the T/C [5] was 125 % of control and the survivor count [6] was 0 of 10.
`O=C(Nc1ccc(C2=NCCCN2)cc1)c1ccc(C(=O)Nc2ccc(C3=NCCCN3)cc2)nc1` was tested, and the survivor count (dose: 2.5 mg/kg/injection, schedule: Q01DX009 (ip), vehicle: saline with Tween-80) was 10 of 10.
In the case of `[Cl][Pt+2][Cl].[NH-]CCO.[NH-]CCO`, the T/C [10] is reported as 132 % of control and the survivor count [3] is reported as 8 of 8.
For `O=c1cnn(C2OC(CO)C(O)C2O)c(=O)[nH]1` (stereo not drawn), the survivor count (dose: 250.0 mg/kg/injection, schedule: Q03HX032 (ip), vehicle: water) was 10 of 10, the survivor count (dose: 500.0 mg/kg/injection, schedule: Q03HX024 (ip), vehicle: water) was 10 of 10 and the survivor count (dose: 500.0 mg/kg/injection, schedule: Q03HX032 (ip), vehicle: water) was 10 of 10. For the same compound, the survivor count (dose: 1000.0 mg/kg/injection, schedule: Q03HX024 (ip), vehicle: water) was 10 of 10, the survivor count (dose: 1000.0 mg/kg/injection, schedule: Q03HX032 (ip), vehicle: water) was 10 of 10 and the survivor count (dose: 1200.0 mg/kg/injection, schedule: Q01DX009 (ip), vehicle: Klucel (hydroxypropylcellulose) (HPC)) was 10 of 10. The survivor count (dose: 2000.0 mg/kg/injection, schedule: Q03HX024 (ip), vehicle: water) was 8 of 10 and the survivor count (dose: 2000.0 mg/kg/injection, schedule: Q03HX032 (ip), vehicle: water) was 10 of 10.
In the case of `N=[N+]=CC(=O)OCC(N)C(=O)O` (stereo not drawn), the survivor count (dose: 3.1 mg/kg/injection, schedule: Q01DX009 (ip), vehicle: other) is reported as 6 of 6, the survivor count (dose: 6.2 mg/kg/injection, schedule: Q01DX009 (ip), vehicle: other) is reported as 6 of 6 and the survivor count (dose: 12.5 mg/kg/injection, schedule: Q01DX009 (ip), vehicle: other) is reported as 6 of 6. The survivor count (dose: 25.0 mg/kg/injection, schedule: Q01DX009 (ip), vehicle: other) was 6 of 6, the survivor count [10] was 10 of 10 and the survivor count (dose: 30.0 mg/kg/injection, schedule: Q04DX003 (ip), vehicle: water) was 6 of 6. For the same compound, the survivor count (dose: 40.0 mg/kg/injection, schedule: Q04DX003 (ip), vehicle: other) was 6 of 6 and the survivor count (dose: 1500.0 micrograms/kg/injection, schedule: Q01DX009 (ip), vehicle: water) was 4 of 6.
In the case of `Cc1cc(N=NC(N)=S)c2ccccc2c1O`, the survivor count [4] is reported as 10 of 10, the survivor count [5] is reported as 10 of 10 and the survivor count [6] is reported as 10 of 10.
`CC(O)C1(O)C(O)CC(OC2c3cc4c(c(O)c3[C@@H]3C[C@@]2(C)OC32C=c3cc[nH]c3=N2)C(=O)c2cccc(O)c2C4=O)OC1C` (stereo partly drawn) was tested, and the T/C (dose: 8.0 mg/kg/injection, schedule: Q01DX009 (ip), vehicle: saline with Tween-80) was 131 % of control and the T/C (dose: 32.0 mg/kg/injection, schedule: Q01DX009 (ip), vehicle: saline with Tween-80) was 134 % of control.
With `CCCCOC(=O)/C=C(\Br)C(=O)OCCCC` the survivor count (dose: 50.0 mg/kg/injection, schedule: Q01DX009 (ip), vehicle: saline with Tween-80) was 10 of 10, the survivor count [4] was 10 of 10 and the survivor count [5] was 9 of 10.
For `O=C(COc1ccc(Cl)cc1)Nc1cccnc1`, the survivor count [7] was 0 of 10.
For `O=C1Nc2ccccc2/C1=C\c1ccccc1O`, the survivor count [11] was 1 of 10 and 10 of 10, the survivor count [7] was 5 of 10 and the survivor count [9] was 9 of 10. For the same compound, the survivor count [8] was 7 of 10.
With `Nc1ccccc1O` the survivor count [2] was 5 of 10.
For `CCC1OC(=O)CC(O)C(C)C(OC2OC(C)CC(N(C)C)C2O)C(CC=O)CC(C)C(=O)/C=C/C2(C)OC2C1C` (stereo not drawn), the survivor count (dose: 12.5 mg/kg/injection, schedule: Q01DX009 (ip), vehicle: Klucel (hydroxypropylcellulose) (HPC)) was 7 of 7, the survivor count (dose: 25.0 mg/kg/injection, schedule: Q01DX009 (ip), vehicle: Klucel (hydroxypropylcellulose) (HPC)) was 6 of 7 and the survivor count [11] was 10 of 10. For the same compound, the survivor count [9] was 8 of 10.
`COc1cc(NS(C)(=O)=O)ccc1Nc1c2ccc([N+](=O)[O-])cc2nc2c(C)cccc12` was tested, and the T/C (dose: 0.3 mg/kg/injection, schedule: Q01DX009 (ip), vehicle: saline with Tween-80) was 126 [5 of 6 alive] and 127 % of control and the T/C (dose: 1.2 mg/kg/injection, schedule: Q01DX009 (ip), vehicle: saline with Tween-80) was 130 % of control.
